{"source": "PubChem BioAssay AID652259 (Drosophila RNAi Screening Center, 2013)", "aim": "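Knock-downs that push a Wingless-driven reporter up or down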 (primary screen)", "system": "Drosophila clone 8 imaginal disc epithelial cells", "reagents": "long dsRNA against Drosophila genes", "challenge": "pathway stimulated by co-transfected Wingless expression plasmid", "detection": "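Dual luciferase reads per well after Wingless plasmid stimulation: reporter firefly light and Renilla control light; activity is firefly divided by Renilla, a ratio not deposited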", "reading the numbers": "firefly reporter light: higher = more Wg reporter light, before normalisation; Renilla control light: higher = more transfected or surviving cells", "rule for the call": "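a knock-down is a candidate when at least two out of four statistical tests show it departing from its plate mean; one test alone signals a weak candidate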", "calls": "active = candidate regulator (raises or lowers reporter); inactive = not a candidate", "note": "The deposit covers about 22,000 reagents; below is an unselected part of those with a known target gene and a result. In the full data, 233 (1.1%) were called active. 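Light values are raw, unnormalised plate reads; the ratio scores behind the reporter calls were not deposited.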 Not stated in the record: the amount of reagent, the time to read-out, the dose of the treatment."}
{"gene": "CtBP", "DRSC id": "DRSC16617", "firefly reporter light, replicate 1": 7171, "Renilla control light, replicate 1": 2759, "outcome": "inactive"}
{"gene": "Zmynd10", "DRSC id": "DRSC09826", "firefly reporter light, replicate 1": 5456, "Renilla control light, replicate 1": 2288, "outcome": "inactive"}
{"gene": "Pss", "DRSC id": "DRSC11757", "firefly reporter light, replicate 1": 15361, "Renilla control light, replicate 1": 4755, "outcome": "inactive"}
{"gene": "CG32110", "DRSC id": "DRSC09220", "firefly reporter light, replicate 1": 2486, "Renilla control light, replicate 1": 1322, "outcome": "inactive"}
{"gene": "CG43333", "DRSC id": "DRSC01917", "firefly reporter light, replicate 1": 2157, "firefly reporter light, replicate 2": 7851, "Renilla control light, replicate 1": 896, "Renilla control light, replicate 2": 2387, "outcome": "inactive"}
{"gene": "CG32371", "DRSC id": "DRSC22209", "firefly reporter light, replicate 1": 6.98e5, "firefly reporter light, replicate 2": 7.98e5, "Renilla control light, replicate 1": 3.95e5, "Renilla control light, replicate 2": 3.83e5, "outcome": "inactive"}
{"gene": "CG13084", "DRSC id": "DRSC02188", "firefly reporter light, replicate 1": 2474, "firefly reporter light, replicate 2": 4960, "Renilla control light, replicate 1": 674, "Renilla control light, replicate 2": 1558, "outcome": "inactive"}
{"gene": "Obp83b", "DRSC id": "DRSC12360", "firefly reporter light, replicate 1": 12416, "Renilla control light, replicate 1": 3672, "outcome": "inactive"}
{"gene": "CG16953", "DRSC id": "DRSC15167", "firefly reporter light, replicate 1": 2375, "firefly reporter light, replicate 2": 7076, "Renilla control light, replicate 1": 949, "Renilla control light, replicate 2": 2103, "outcome": "inactive"}
{"gene": "eIF3f2", "DRSC id": "DRSC04903", "firefly reporter light, replicate 1": 3955, "firefly reporter light, replicate 2": 7715, "Renilla control light, replicate 1": 1249, "Renilla control light, replicate 2": 3712, "outcome": "inactive"}
{"gene": "CG32643", "DRSC id": "DRSC18962", "firefly reporter light, replicate 1": 1895, "Renilla control light, replicate 1": 748, "outcome": "inactive"}
{"gene": "CG15282", "DRSC id": "DRSC22620", "firefly reporter light, replicate 1": 7.61e5, "firefly reporter light, replicate 2": 7.56e5, "Renilla control light, replicate 1": 1.92e5, "Renilla control light, replicate 2": 3828, "outcome": "inactive"}
{"gene": "CG13252", "DRSC id": "DRSC11700", "firefly reporter light, replicate 1": 14434, "Renilla control light, replicate 1": 5604, "outcome": "inactive"}
{"gene": "CG12480", "DRSC id": "DRSC19460", "firefly reporter light, replicate 1": 26464, "Renilla control light, replicate 1": 10858, "outcome": "inactive"}
{"gene": "Dh31", "DRSC id": "DRSC02196", "firefly reporter light, replicate 1": 2429, "firefly reporter light, replicate 2": 5494, "Renilla control light, replicate 1": 733, "Renilla control light, replicate 2": 2635, "outcome": "inactive"}
{"gene": "CG5880", "DRSC id": "DRSC15906", "firefly reporter light, replicate 1": 1395, "firefly reporter light, replicate 2": 5465, "Renilla control light, replicate 1": 740, "Renilla control light, replicate 2": 1938, "outcome": "inactive"}
{"gene": "Osi10b", "DRSC id": "DRSC12279", "firefly reporter light, replicate 1": 7665, "Renilla control light, replicate 1": 1457, "outcome": "inactive"}
{"gene": "Ir48a", "DRSC id": "DRSC05301", "firefly reporter light, replicate 1": 15449, "Renilla control light, replicate 1": 13220, "outcome": "inactive"}
{"gene": "SmydA-6", "DRSC id": "DRSC07341", "firefly reporter light, replicate 1": 6736, "Renilla control light, replicate 1": 1808, "outcome": "inactive"}
{"gene": "Cpr64Ad", "DRSC id": "DRSC08284", "reporter change call, replicate 1": "Wg reporter activity raised", "firefly reporter light, replicate 1": 9901, "Renilla control light, replicate 1": 4165, "outcome": "inactive"}
{"gene": "TTLL12", "DRSC id": "DRSC06555", "firefly reporter light, replicate 1": 3113, "firefly reporter light, replicate 2": 4336, "Renilla control light, replicate 1": 307, "Renilla control light, replicate 2": 2786, "outcome": "inactive"}
{"gene": "CG10669", "DRSC id": "DRSC14261", "firefly reporter light, replicate 1": 13520, "Renilla control light, replicate 1": 14038, "outcome": "inactive"}
{"gene": "CG13038", "DRSC id": "DRSC09919", "firefly reporter light, replicate 1": 10646, "Renilla control light, replicate 1": 4995, "outcome": "inactive"}
{"gene": "CG3650", "DRSC id": "DRSC04401", "firefly reporter light, replicate 1": 1600, "firefly reporter light, replicate 2": 7481, "Renilla control light, replicate 1": 343, "Renilla control light, replicate 2": 2055, "outcome": "inactive"}
{"gene": "SmydA-2", "DRSC id": "DRSC10296", "firefly reporter light, replicate 1": 7606, "Renilla control light, replicate 1": 2087, "outcome": "inactive"}

In a second layout: results already given.
| gene | DRSC id | reporter change call, replicate 1 | firefly reporter light, replicate 1 | firefly reporter light, replicate 2 | Renilla control light, replicate 1 | Renilla control light, replicate 2 | outcome |
| --- | --- | --- | --- | --- | --- | --- | --- |
| CG16953 | DRSC15167 | – | 2375 | 7076 | 949 | 2103 | inactive |
| eIF3f2 | DRSC04903 | – | 3955 | 7715 | 1249 | 3712 | inactive |
